From US7816074B2, “α4 β2 δGABA-A receptors as a strategy for PMS and alcoholism” (priority 2003, dated 2010)
At least one compound was matched to its structure with a doubt left.

Tested on: GABAR of acutely dissociated CA1 hippocampal pyramidal neurons
Assay: Whole cell patch clamp, lorazepam modulation and decay of GABA-gated current after steroid/ethanol treatment
Format: cell-based, rat
Conditions: 48 h 3α,5β-THP
Method: Animals were administered steroids using one of two protocols: (i) For the 48 hour steroid administration protocol, animals were injected with 10 mg/kg 3α, 5β THP in oil, i.p., on a daily basis for three days and sacrificed 1-2 hour following the final injection. Controls were injected with oil vehicle. […] At this time, the capsule was removed and the animals were injected with 17 β estradiol (2 μgs/animal) in order to reset their cycle. Animals were sacrificed 24 hours later. […] In all cases, implantation and removal of capsules were performed under halothane anesthesia. […] Therefore, this study employed the 5β isomer of the steroid.
In some groups of animals, either ethanol (0.5 g/kg in saline) or saline vehicle was administered i.p. (3×, every 40 minutes) for the final 2 hours of the respective steroid administration or withdrawal paradigm. The use of multiple injections of low doses of ethanol would approximate ethanol consumption in the human more closely than would a single injection. For the 48 hour steroid administration paradigm, animals received their first ethanol injection immediately after the steroid injection, and subsequent injections at 40 minute intervals. […]
Currents were recorded using an Axopatch 1D amplifier (Axon Instruments) filtered at 2 kHz (four-pole Bessel filter) and detected at 500 Hz (pClamp 5.1).

CC(=O)[C@H]1CC[C@H]2[C@@H]3CC[C@@H]4C[C@H](O)CC[C@]4(C)[C@H]3CC[C@]12C [3α, 5β-THP]
decay time of GABA-gated current: 0:60 0:054 s
